# Results: the supplement of paper PMC4604168 (melanoma cell lines)
# Some of the results follow. Repeats are few or missing, and single values can be far off.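 Cells were imaged in 1,536-well plates, and nuclei stained with an antibody against cleaved PARP were counted against all DNA-stained nuclei to give the apoptosis fraction. Screening doses were chosen to leave most cells alive, and resting and induced cleaved-PARP levels differ strongly between cell lines.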
# Columns and labels:
# Test in all cases: cleaved PARP positive nuclei fraction relative to DMSO control; melanoma cells; higher = more apoptosis
# Conditions in all cases: library dose: low library concentration; 72 h
# WM115 = test system: WM115
# WM1716 = test system: WM1716
# WM1745 = test system: WM1745
# WM3526 = test system: WM3526
# WM3619 = test system: WM3619
# WM451Lu = test system: WM451Lu
Structure (SMILES),cleaved PARP positive nuclei fraction (WM115),cleaved PARP positive nuclei fraction (WM1716),cleaved PARP positive nuclei fraction (WM1745),cleaved PARP positive nuclei fraction (WM3526),cleaved PARP positive nuclei fraction (WM3619),cleaved PARP positive nuclei fraction (WM451Lu)
"CC(=O)c1c(C)c2cnc(Nc3ccc(N4CCNCC4)cn3)nc2n(C2CCCC2)c1=O [palbociclib] + Cn1nnc2c(C(N)=O)ncn2c1=O [temozolomide] (first compound 0.04 µM, partner dose 2 µM)",129%,132%,99.2%,114%,109%,130%
"CC1(C)NC(=O)N(c2ccc([N+](=O)[O-])c(C(F)(F)F)c2)C1=O [nilutamide] + CC(C)(C)c1cnc(CSc2cnc(NC(=O)C3CCNCC3)s2)o1 [SNS-032] (first compound 1 µM, partner dose 0.01 µM)",83.1%,96%,107%,27.9%,88.2%,188%
"Cn1c(Nc2ccc(C(F)(F)F)cc2)nc2cc(Oc3ccnc(-c4ncc(C(F)(F)F)[nH]4)c3)ccc21 + COc1ccc(-c2ccc3c(N4CCOCC4)nc(N4C[C@@H](C)O[C@@H](C)C4)nc3n2)cc1CO [KU0063794] (first compound 0.08 µM, partner dose 0.02 µM)",1030%,215%,170%,309%,150%,228%
"Cc1nc(Nc2ncc(C(=O)Nc3c(C)cccc3Cl)s2)cc(N2CCN(CCO)CC2)n1 [dasatanib] + CCc1ccc(CCOc2ccc(CC3SC(=O)NC3=O)cc2)nc1 [pioglitazone] (first compound 0.004 µM, partner dose 2 µM)",160%,186%,149%,244%,113%,124%
"CC(C)(C)c1cnc(CSc2cnc(NC(=O)C3CCNCC3)s2)o1 + O=C(Nc1cccc(Cl)c1)Nc1ncc(CCNc2ncnc3ccsc23)s1 [SNS314] (first compound 0.01 µM, partner dose 0.0008 µM)",101%,87.2%,124%,132%,93.3%,124%
"OCc1c[nH]c2ccccc12 [Indole-3-carbinol] + COc1ccc(-c2ccc3c(N4CCOCC4)nc(N4C[C@@H](C)O[C@@H](C)C4)nc3n2)cc1CO [KU0063794] (first compound 0.8 µM, partner dose 0.02 µM)",114%,159%,90.8%,65.6%,70.4%,41.2%
"NC(=O)Nc1cc(-c2cccc(F)c2)sc1C(=O)N[C@H]1CCCNC1 + O=C(Nc1cccc(Cl)c1)Nc1ncc(CCNc2ncnc3ccsc23)s1 [SNS314] (first compound 0.02 µM, partner dose 0.0008 µM)",211%,169%,96.6%,60.7%,114%,96.4%
"Cc1ccc(NC(=O)c2cccc(N(C)C)c2)cc1NC(=O)c1ccc(O)cc1 + CCN(CC)CCCCNc1ncc2cc(-c3cc(OC)cc(OC)c3)c(NC(=O)NC(C)(C)C)nc2n1 [PD173074] (first compound 2 µM, partner dose 0.1 µM)",144%,127%,111%,64.5%,77.8%,85.9%
"COc1cc(Nc2ncc(F)c(Nc3ccc4c(n3)NC(=O)C(C)(C)O4)n2)cc(OC)c1OC [Tamatinib] + NC(=O)Nc1cc(-c2cccc(F)c2)sc1C(=O)N[C@H]1CCCNC1 [AZD7762] (first compound 0.4 µM, partner dose 0.02 µM)",251%,28.4%,299%,183%,152%,195%

# Nothing new here: entries from further up.
Structure (SMILES),cleaved PARP positive nuclei fraction (WM115),cleaved PARP positive nuclei fraction (WM1716),cleaved PARP positive nuclei fraction (WM1745),cleaved PARP positive nuclei fraction (WM3526),cleaved PARP positive nuclei fraction (WM3619),cleaved PARP positive nuclei fraction (WM451Lu)
"Cn1c(Nc2ccc(C(F)(F)F)cc2)nc2cc(Oc3ccnc(-c4ncc(C(F)(F)F)[nH]4)c3)ccc21 + COc1ccc(-c2ccc3c(N4CCOCC4)nc(N4C[C@@H](C)O[C@@H](C)C4)nc3n2)cc1CO [KU0063794] (first compound 0.08 µM, partner dose 0.02 µM)",1030%,215%,170%,309%,150%,228%
"Cc1nc(Nc2ncc(C(=O)Nc3c(C)cccc3Cl)s2)cc(N2CCN(CCO)CC2)n1 [dasatanib] + CCc1ccc(CCOc2ccc(CC3SC(=O)NC3=O)cc2)nc1 [pioglitazone] (first compound 0.004 µM, partner dose 2 µM)",160%,186%,149%,244%,113%,124%
